This is an account of results in patent publication US20090281163.

Sequences of proteins named here, by UniProt entry; tags and fusion partners are left off. A change or cut given only in a name is not applied to a line headed by its entry.
UniProt P31360, whole entry: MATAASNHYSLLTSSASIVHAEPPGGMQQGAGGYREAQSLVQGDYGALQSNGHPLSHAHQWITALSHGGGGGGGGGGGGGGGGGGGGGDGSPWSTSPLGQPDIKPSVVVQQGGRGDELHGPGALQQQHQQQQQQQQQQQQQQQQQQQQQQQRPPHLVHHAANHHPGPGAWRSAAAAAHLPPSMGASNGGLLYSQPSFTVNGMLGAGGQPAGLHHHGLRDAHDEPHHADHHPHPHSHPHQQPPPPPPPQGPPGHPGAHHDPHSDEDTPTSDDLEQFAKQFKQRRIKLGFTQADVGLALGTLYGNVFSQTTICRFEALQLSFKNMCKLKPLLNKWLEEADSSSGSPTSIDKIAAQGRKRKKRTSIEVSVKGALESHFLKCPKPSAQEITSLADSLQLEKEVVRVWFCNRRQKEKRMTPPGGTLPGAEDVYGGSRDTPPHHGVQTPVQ
UniProt P80206: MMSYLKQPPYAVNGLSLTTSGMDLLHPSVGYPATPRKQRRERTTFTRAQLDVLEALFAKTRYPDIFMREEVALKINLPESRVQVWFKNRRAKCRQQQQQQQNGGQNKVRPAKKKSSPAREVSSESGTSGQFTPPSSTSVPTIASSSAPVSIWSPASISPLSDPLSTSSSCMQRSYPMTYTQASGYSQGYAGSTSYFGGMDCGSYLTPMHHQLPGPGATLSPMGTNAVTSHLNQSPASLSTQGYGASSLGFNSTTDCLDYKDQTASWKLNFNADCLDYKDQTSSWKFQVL
UniProt O54751: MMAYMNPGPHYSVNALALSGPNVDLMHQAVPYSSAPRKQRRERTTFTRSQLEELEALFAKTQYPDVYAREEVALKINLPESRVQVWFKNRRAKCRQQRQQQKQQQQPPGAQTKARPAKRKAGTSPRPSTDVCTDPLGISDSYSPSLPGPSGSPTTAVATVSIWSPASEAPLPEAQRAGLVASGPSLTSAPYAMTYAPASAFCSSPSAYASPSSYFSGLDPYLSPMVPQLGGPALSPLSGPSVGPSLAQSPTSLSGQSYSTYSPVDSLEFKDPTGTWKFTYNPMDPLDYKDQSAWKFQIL

Results from cells or extracts need not show a direct contact. A negative result means that nothing was seen under these conditions. For some assays here: Construct, isoform or probe ends are uncertain for at least one entry.

Holding throughout (test): EMSA
What all share (details): protein in a lysate after overexpression, label: 32P
On the technique in general: In EMSA bound probe runs differently from free probe, usually more slowly.

The target in series [1] is Brn2 (Pou3f2) (Mus musculus) (UniProt P31360).
Series [2] addresses Otx2Myc (Otx2) (Mus musculus) (UniProt P80206).
For series [3], the target named is CrxMyc (Crx) (Mus musculus) (UniProt O54751).
The mark [4] stands for this setting: CTAATCC sites interacted only with Crx and Otx2.
The mark [5] stands for this setting: by contrast in text, AAAT site bound by Brn2 only.
Setting [6] is: 22 C, 50 mM KCl, 10 mM Tris pH 7.5, poly(dI-dC).
The mark [7] stands for this setting: by contrast in text, relatively specific POU site.
Setting [8] is: by contrast in text, GAAT site bound by Brn2 only.

As to “CTAGAGAGCTCTAATCCCTCCACT (double strand) [Cabp5 Pitx2 site probe]”, the results for the binding result in series [1] (setting [4]), in series [2] (same buffer) and in series [3] (same buffer) were “no binding”, “binds” and “binds”, respectively.

As for “CTAGAGATAAATCTAATCGTCTCT (double strand) [Chx10 Otx site probe]”, the binding result in series [1] (same buffer) and in series [2] (same buffer) was “binds” in each case.

For “CTAGCAAATCGTTAATCTGCTAAAG (double strand) [Grm6 Crx site probe]”, the binding result in series [1] (same buffer), in series [2] (same buffer) and in series [3] (same buffer) was “binds” throughout.

Turning to “CTAGCCCTCTTTCAAAATGTACTATC (double strand) [Cabp5 5' Brn2 site probe]”, the binding result in series [1] (same buffer) was “binds”; in series [2] (setting [5]), “no binding”; in series [3] (setting [5]) it was “no binding”.

For “CTAGCCTCACCCTAATCCCTCTTTC (double strand) [Cabp5 Crx site probe]”, the binding result in series [1] (setting [4]) was “no binding”; in series [2] (same buffer), “binds”; in series [3] (same buffer), “binds”.

Take “CTAGCTAAACTTTTAAATCATGAATGAAGTAGA (double strand) [Grm6 Pax6 site probe]”: the binding result in series [1] (setting [6]) is recorded as “binds”; in series [2] (setting [6]), “no binding”; in series [3] (setting [6]), “no binding”.

For the sequence “CTAGCTGCCATTAAAATATTAAAG (double strand) [Chx10 Pou3f2 site probe]”, the binding result in series [1] (same buffer) is “binds”; in series [2] (setting [7]), “no binding”; in series [3] (setting [7]), “no binding”.

Take “CTAGCTTTAATCTGTTAATGTAGT (double strand) [Grm6 Pou3f2 site probe]”: the binding result in series [1] (same buffer), in series [2] (same buffer) and in series [3] (same buffer) was “binds” in each case.

Take “CTAGTAAGTAGAATTTTCCATGAGCTGT (double strand) [Cabp5 3' Brn2 site probe]”: the figures for the binding result in series [1] (same buffer), in series [2] (setting [8]) and in series [3] (setting [8]) were “binds”, “no binding” and “no binding”, respectively.

On to “CTAGTCTCTTTATCCAAAATAAGCGACT (double strand) [Chx10 Brn2 site probe]”, for which the binding result is “binds” in series [1] (same buffer), “no binding” in series [2] (setting [7]) and “no binding” in series [3] (setting [7]).

For “CTAGTTGCCCGCTAATCCCAGCTG (double strand) [Chx10 Crx site probe]”, the values for the binding result in series [1] (setting [4]), in series [2] (same buffer) and in series [3] (same buffer) were “no binding”, “binds” and “binds”, respectively.
